Source: patent US9624233B2, “Compounds for treating pruritic conditions” (priority 2015, dated 2017)

What was measured:
Settings in all cases: 1.0E−05M
[1] = test system: BZD (central); test: Abuse liability binding screen, BZD (central) (agonist radioligand)
Description: (§1) Compound binding was calculated as a % inhibition of the binding of a radioactively labeled ligand specific for each target.

[2] = test system: AMPA; test: Abuse liability binding screen, AMPA (antagonist radioligand)
Description: as §1

[3] = test system: kainate; test: Abuse liability binding screen, kainate (agonist radioligand)
Description: as §1

[4] = test system: NMDA; test: Abuse liability binding screen, NMDA (antagonist radioligand)
Description: as §1

[5] = test system: glycine (strychnine−insensitive); type: binding
Description: as §1

[6] = test system: PCP; test: Abuse liability binding screen, PCP (antagonist radioligand)
Description: as §1

[7] = test system: ER (non-selective) (h); test: Abuse liability binding screen, ER (non-selective) (h) (agonist radioligand); set-up: species or system human
Description: as §1

[8] = test system: Na^+ channel (site 2); test: Abuse liability binding screen, Na+ channel (site 2) (antagonist radioligand)
Description: as §1

[9] = test system: Cl^− channel (GABA-gated); test: Abuse liability binding screen, Cl− channel (GABA-gated) (antagonist radioligand)
Description: as §1

[10] = test system: GABA transporter; test: Abuse liability binding screen, GABA transporter (antagonist radioligand)
Description: as §1

## Oc1ccc2c3c1O[C@H]1[C@@H](O)CC[C@@]4(O)[C@@H](C2)N(CC2CCC2)CC[C@]314 [Nalbuphine, nalbuphine]
[1]
  % Inhibition of Control Specific Binding 1st: −16.7%
  % Inhibition of Control Specific Binding Mean: −6.7%
[2]
  % Inhibition of Control Specific Binding 1st: −1.0%
  % Inhibition of Control Specific Binding 2nd: −8.0%
  % Inhibition of Control Specific Binding Mean: −4.5%
[3]
  % Inhibition of Control Specific Binding 1st: −11.0%
  % Inhibition of Control Specific Binding 2nd: −37.0%
  % Inhibition of Control Specific Binding Mean: −24.0%
[4]
  % Inhibition of Control Specific Binding 1st: −4.2%
  % Inhibition of Control Specific Binding 2nd: −13.4%
  % Inhibition of Control Specific Binding Mean: −8.8%
[5]
  % Inhibition of Control Specific Binding 1st: −9.7%
  % Inhibition of Control Specific Binding Mean: −9.8%
[6]
  % Inhibition of Control Specific Binding 1st: −4.3%
  % Inhibition of Control Specific Binding 2nd: 12.0%
  % Inhibition of Control Specific Binding Mean: 3.9%
[7]
  % Inhibition of Control Specific Binding 1st: 0.5%
  % Inhibition of Control Specific Binding 2nd: −1.8%
  % Inhibition of Control Specific Binding Mean: −0.6%
[8]
  % Inhibition of Control Specific Binding 1st: 3.2%
  % Inhibition of Control Specific Binding 2nd: 6.9%
  % Inhibition of Control Specific Binding Mean: 5.1%
[9]
  % Inhibition of Control Specific Binding 1st: −15.7%
  % Inhibition of Control Specific Binding 2nd: −4.6%
  % Inhibition of Control Specific Binding Mean: −10.2%
[10]
  % Inhibition of Control Specific Binding 1st: 0.9%
  % Inhibition of Control Specific Binding 2nd: −3.0%
  % Inhibition of Control Specific Binding Mean: −1.1%
